Here are results for two molecules from article PMC4444329, “Disabling Mitochondrial Peroxide Metabolism via Combinatorial Targeting of Peroxiredoxin 3 as an Effective Therapeutic Approach for Malignant Mesothelioma” (PLoS ONE, 2015).

Results are given in words; binding and its absence hold for the method and conditions named. For part of these data: In cells and extracts the contact can be indirect. Some results given as binding are weak or reduced against the parent protein; the word gives no strength. For part of these data: Where a sequence is shown, tags or fusion partners need not be part of it.

The target of test [1] is FLAG-tagged human PRX3, wild type (human) (UniProt P30048). As to the kind of experiment: cross-linking; cells treated with TS (5 μM, with or without gentian violet pre-incubation; also tumors of mice given 50 mg/kg TS); lysates on reducing SDS-PAGE, immunoblot for PRX3; 35-40 kDa band immunoprecipitated and tryptic peptides read by LC-MS/MS. For orientation: A western blot detects proteins with antibodies after separation by electrophoresis.

In test [2] the target is Peroxiredoxin 3 (PRX3), endogenous in human mesothelioma and mesothelial cells (human (endogenous in HM cells)) (UniProt P30048). Description: non-reducing SDS-PAGE and immunoblot (disulfide-bonded dimers); HM cells treated with TS, GV or TS + GV for 18 hr; extracts on non-reducing SDS-PAGE, PRX3 monomers (~23 kD) and disulfide-bonded dimers (~46 kD) by immunoblot.
Test [3] shares this target. Description: cross-linking; cells treated with TS (5 μM, with or without gentian violet pre-incubation; also tumors of mice given 50 mg/kg TS); lysates on reducing SDS-PAGE, immunoblot for PRX3; 35-40 kDa band immunoprecipitated and tryptic peptides read by LC-MS/MS.

B1: FLAG-tagged human PRX3, wild type (enzyme, UniProt P30048 62-256)
chain: APAVTQHAPYFKGTAVVNGEFKDLSLDDFKGKYLVLFFYPLDFTFVCPTEIVAFSDKANEFHDVNCEVVAVSVDSHFSHLAWINTPRKNGGLGHMNIALLSDLTKQISRDYGVLLEGSGLALRGLFIIDPNGVIKHLSVNDLPVGRSVEETLRLVKAFQYVETHGEVCPANWTPDSPTIKPSPAASKEYFQKVNQ
Take B1: the binding entry in test [1] was “binds”.

B2: Peroxiredoxin 3 (PRX3), endogenous in human mesothelioma and mesothelial cells (enzyme, UniProt P30048 62-256)
chain: B1 chain
B2: the binding entry in test [2] and in test [3] was “binds” throughout.
